Measured data: PubChem BioAssay AID1053208 (Peter MacCallum Cancer Centre, 2014)

Screen: 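Find knock-downs that sensitise mouse osteosarcoma cells to doxorubicin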 (primary screen)
Cells: mouse osteosarcoma cells, early-passage culture from an engineered mouse model of fibroblastic bone tumour
Knock-down reagent: siRNA pool against mouse genes, 40 nM
Timing: about 120 h (48 h before drug, then 72 h with drug)
Treatment: doxorubicin 100 nM for 72 h, roughly 30-40% inhibitory dose
Measurement: 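Luminescent ATP signal taken as viability with or without 100 nM doxorubicin for 72 h; mean of two wells set against non-targeting siRNA and turned into robust z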
Direction: viability z-score with doxorubicin: higher = more viable cells under doxorubicin; viability z-score without drug: higher = more viable cells with knock-down alone
Rule for the call: 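Called active if knock-down leaves viability unchanged without drug (z within -2 to 2) but lowers it with doxorubicin (z at or under -2)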
The whole screen tested about 17,000 reagents; below is a part drawn at random. Over the whole deposit, 788 (4.7%) are marked active. 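Calls rest on z-score classes alone; an extra cut-off of viability at most 70% of control was not applied to them.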 Entries without a mark were called inactive. Not all columns of the deposit are shown.

After knock-down of F2rl1 (F2R like trypsin receptor 1), the record shows combined z-score class no change with or without drug; viability z-score with doxorubicin 0; viability z-score without drug -0.17.
With knock-down of Irx2 (Iroquois homeobox 2) the results were combined z-score class no change with or without drug; viability z-score with doxorubicin -1.12; viability z-score without drug -0.84.
Against Tgm2 (transglutaminase 2, C polypeptide) the deposit lists combined z-score class no change with or without drug; viability z-score with doxorubicin 0.9; viability z-score without drug 0.17.
Rfc1 (replication factor C (activator 1) 1) showed combined z-score class no change with or without drug; viability z-score with doxorubicin -1.91; viability z-score without drug -1.01.
Knock-down of Nup107 (nucleoporin 107) gave: combined z-score class low cell count with and without drug; viability z-score with doxorubicin -3.82; viability z-score without drug -3.2.
Smad4 (SMAD family member 4) showed combined z-score class no change with or without drug; viability z-score with doxorubicin 0.22; viability z-score without drug 0.84.
Silencing of Tm2d2 (TM2 domain containing 2) gave: combined z-score class no change with or without drug; viability z-score with doxorubicin 0.67; viability z-score without drug 0.34.
Ppp1r9b (protein phosphatase 1, regulatory subunit 9B) scored combined z-score class no change with or without drug; viability z-score with doxorubicin 1.35; viability z-score without drug -0.34.
After knock-down of Brs3 (bombesin-like receptor 3) the results were combined z-score class no change with or without drug; viability z-score with doxorubicin 0; viability z-score without drug -0.17.
With knock-down of Itgam (integrin alpha M), the screen gave combined z-score class no change with or without drug; viability z-score with doxorubicin -0.45; viability z-score without drug 0.67.
Taf6l (TATA-box binding protein associated factor 6 like) showed combined z-score class no change with or without drug; viability z-score with doxorubicin -0.22; viability z-score without drug 0.67.
Knock-down of Lrrc24 (leucine rich repeat containing 24) came out at: combined z-score class high cell count without drug only; viability z-score with doxorubicin 1.46; viability z-score without drug 2.19.

Laid out differently: results already given.
| gene | combined z-score class | viability z-score with doxorubicin | viability z-score without drug |
| --- | --- | --- | --- |
| Itgam (integrin alpha M) | no change with or without drug | -0.45 | 0.67 |
| Taf6l (TATA-box binding protein associated factor 6 like) | no change with or without drug | -0.22 | 0.67 |
